In assay [1] the target is CCR5 (UniProt P51681). Nature of the assay: co-IP; as a1, but cells treated with 5P14-RANTES (100 nM, 50 min) before crosslinking, lysis and anti-CCR5 immunoprecipitation.
For assay [2], the target named is CCR5 (UniProt P51681). Nature of the assay: condition: only cells treated with 5P12-RANTES (100 nM, 50 min); co-IP; as a1, but cells treated with 5P12-RANTES (100 nM, 50 min) before crosslinking, lysis and anti-CCR5 immunoprecipitation.
Assay [3] addresses CCR5 (UniProt P51681). As to the kind of experiment: co-IP; CHO-CCR5 cells stably expressing arrestin2-GFP treated with RANTES/CCL5 or PSC-RANTES (100 nM, 50 min), washed, crosslinked with 1.25 mM dithiobis[succinimidylpropionate] (60 min), lysed (25 mM Tris, 150 mM NaCl, 1 mM EDTA, 1% NP40, 5% glycerol); CCR5 captured with rat anti-CCR5 mAb on Protein G Mag Sepharose; crosslinks cleaved with 50 mM DTT; blot with anti-GFP or anti-arrestin2.

The chains behind the UniProt entries cited, without tags or fusion partners.
UniProt P51681: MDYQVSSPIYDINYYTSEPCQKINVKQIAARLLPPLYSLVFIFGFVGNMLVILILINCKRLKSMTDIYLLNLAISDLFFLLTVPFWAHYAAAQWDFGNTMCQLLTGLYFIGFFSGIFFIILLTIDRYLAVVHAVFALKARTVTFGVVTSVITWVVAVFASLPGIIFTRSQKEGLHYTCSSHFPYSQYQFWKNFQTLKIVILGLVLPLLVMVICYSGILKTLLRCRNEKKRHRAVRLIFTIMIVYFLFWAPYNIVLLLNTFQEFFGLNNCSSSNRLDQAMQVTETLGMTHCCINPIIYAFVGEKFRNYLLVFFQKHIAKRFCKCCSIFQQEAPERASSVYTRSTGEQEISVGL
UniProt P17870: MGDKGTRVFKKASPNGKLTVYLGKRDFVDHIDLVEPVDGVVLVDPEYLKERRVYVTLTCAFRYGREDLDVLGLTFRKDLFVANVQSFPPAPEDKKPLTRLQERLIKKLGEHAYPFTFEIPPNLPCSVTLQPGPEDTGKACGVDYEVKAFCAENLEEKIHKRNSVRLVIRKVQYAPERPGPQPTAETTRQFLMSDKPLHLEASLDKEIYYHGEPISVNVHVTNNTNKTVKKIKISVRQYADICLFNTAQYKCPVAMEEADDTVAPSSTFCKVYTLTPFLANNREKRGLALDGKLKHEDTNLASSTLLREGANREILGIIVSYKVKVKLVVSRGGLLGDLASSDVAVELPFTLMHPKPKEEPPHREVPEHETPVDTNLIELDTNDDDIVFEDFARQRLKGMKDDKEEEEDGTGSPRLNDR

Results are given in words; binding and its absence hold for the method and conditions named. In cells and extracts the contact can be indirect. Some results given as binding are weak or reduced against the parent protein; the word gives no strength.

In the case of “arrestin2-GFP (from UniProt P17870 1-418)”, the binding entry with CCR5 [1] is “binds weakly”; in the assay with CCR5 [2] it was “no binding”; with CCR5 [3], “binds”.
